± gives the standard deviation of the averaged measurements. This is a selection; strong and weak results do not stand in their true shares. Most entries show no effect beyond the scatter of the controls.

Amino acid sequences for entries named in this document (tags omitted). A change or cut given only in a name is not applied to a line headed by its entry.
UniProt Q8WY36: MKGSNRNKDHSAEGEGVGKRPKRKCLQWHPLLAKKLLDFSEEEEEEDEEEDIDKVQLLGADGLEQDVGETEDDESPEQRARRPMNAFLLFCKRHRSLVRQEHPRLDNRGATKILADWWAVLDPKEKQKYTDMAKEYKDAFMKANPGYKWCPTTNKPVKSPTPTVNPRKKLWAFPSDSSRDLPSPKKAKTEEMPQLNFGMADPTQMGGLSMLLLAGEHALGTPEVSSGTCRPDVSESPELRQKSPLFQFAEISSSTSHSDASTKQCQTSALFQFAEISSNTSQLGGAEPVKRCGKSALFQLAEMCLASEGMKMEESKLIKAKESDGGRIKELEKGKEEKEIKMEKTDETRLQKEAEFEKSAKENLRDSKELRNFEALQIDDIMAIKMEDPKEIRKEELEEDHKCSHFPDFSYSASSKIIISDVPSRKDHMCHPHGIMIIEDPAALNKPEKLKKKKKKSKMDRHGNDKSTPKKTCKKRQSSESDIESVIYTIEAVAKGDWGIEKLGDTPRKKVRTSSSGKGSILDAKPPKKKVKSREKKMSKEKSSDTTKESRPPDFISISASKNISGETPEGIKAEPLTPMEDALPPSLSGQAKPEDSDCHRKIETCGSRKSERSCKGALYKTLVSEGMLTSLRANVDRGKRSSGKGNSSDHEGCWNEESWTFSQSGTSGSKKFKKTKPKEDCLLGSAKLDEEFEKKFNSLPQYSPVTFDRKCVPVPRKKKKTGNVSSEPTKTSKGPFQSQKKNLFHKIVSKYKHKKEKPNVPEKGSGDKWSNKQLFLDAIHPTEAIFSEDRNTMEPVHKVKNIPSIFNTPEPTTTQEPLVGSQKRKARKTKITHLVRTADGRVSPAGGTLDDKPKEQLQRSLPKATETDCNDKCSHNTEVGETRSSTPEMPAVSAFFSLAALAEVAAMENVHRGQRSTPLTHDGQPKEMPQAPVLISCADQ
UniProt P84101: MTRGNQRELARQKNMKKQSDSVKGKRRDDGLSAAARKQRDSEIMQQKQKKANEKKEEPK
UniProt Q92925, whole entry: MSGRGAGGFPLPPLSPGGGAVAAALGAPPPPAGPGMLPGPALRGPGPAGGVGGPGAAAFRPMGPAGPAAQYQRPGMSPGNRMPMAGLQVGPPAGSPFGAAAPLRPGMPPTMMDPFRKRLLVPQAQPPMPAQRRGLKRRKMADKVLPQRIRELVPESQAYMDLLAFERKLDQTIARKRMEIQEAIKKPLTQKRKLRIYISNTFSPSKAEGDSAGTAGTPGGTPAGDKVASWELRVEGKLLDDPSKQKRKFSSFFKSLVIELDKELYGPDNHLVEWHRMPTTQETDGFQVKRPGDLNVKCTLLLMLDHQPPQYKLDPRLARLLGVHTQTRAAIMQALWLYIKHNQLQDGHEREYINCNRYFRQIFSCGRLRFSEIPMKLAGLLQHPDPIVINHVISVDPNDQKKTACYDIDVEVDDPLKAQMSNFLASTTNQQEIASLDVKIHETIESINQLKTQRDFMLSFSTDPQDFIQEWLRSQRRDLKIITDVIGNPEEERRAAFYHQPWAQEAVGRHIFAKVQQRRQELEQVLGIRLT
UniProt Q9UFF9, whole entry: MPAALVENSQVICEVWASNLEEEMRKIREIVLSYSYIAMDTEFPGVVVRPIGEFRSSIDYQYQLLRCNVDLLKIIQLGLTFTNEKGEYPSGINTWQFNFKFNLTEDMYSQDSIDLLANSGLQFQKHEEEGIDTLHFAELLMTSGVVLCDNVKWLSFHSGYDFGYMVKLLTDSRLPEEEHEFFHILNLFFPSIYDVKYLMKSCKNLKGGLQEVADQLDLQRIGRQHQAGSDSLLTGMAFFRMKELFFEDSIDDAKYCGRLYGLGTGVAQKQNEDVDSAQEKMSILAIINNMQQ
UniProt O15372, whole entry: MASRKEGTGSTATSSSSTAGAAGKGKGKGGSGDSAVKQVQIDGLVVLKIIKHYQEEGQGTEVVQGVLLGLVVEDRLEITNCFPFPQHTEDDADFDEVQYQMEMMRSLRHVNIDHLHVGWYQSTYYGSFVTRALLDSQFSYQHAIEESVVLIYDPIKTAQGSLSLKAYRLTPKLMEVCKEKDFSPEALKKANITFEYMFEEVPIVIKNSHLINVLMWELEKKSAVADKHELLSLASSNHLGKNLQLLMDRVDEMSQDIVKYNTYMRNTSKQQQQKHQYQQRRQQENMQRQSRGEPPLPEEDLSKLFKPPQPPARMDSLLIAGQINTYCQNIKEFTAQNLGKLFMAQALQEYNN
UniProt O14795: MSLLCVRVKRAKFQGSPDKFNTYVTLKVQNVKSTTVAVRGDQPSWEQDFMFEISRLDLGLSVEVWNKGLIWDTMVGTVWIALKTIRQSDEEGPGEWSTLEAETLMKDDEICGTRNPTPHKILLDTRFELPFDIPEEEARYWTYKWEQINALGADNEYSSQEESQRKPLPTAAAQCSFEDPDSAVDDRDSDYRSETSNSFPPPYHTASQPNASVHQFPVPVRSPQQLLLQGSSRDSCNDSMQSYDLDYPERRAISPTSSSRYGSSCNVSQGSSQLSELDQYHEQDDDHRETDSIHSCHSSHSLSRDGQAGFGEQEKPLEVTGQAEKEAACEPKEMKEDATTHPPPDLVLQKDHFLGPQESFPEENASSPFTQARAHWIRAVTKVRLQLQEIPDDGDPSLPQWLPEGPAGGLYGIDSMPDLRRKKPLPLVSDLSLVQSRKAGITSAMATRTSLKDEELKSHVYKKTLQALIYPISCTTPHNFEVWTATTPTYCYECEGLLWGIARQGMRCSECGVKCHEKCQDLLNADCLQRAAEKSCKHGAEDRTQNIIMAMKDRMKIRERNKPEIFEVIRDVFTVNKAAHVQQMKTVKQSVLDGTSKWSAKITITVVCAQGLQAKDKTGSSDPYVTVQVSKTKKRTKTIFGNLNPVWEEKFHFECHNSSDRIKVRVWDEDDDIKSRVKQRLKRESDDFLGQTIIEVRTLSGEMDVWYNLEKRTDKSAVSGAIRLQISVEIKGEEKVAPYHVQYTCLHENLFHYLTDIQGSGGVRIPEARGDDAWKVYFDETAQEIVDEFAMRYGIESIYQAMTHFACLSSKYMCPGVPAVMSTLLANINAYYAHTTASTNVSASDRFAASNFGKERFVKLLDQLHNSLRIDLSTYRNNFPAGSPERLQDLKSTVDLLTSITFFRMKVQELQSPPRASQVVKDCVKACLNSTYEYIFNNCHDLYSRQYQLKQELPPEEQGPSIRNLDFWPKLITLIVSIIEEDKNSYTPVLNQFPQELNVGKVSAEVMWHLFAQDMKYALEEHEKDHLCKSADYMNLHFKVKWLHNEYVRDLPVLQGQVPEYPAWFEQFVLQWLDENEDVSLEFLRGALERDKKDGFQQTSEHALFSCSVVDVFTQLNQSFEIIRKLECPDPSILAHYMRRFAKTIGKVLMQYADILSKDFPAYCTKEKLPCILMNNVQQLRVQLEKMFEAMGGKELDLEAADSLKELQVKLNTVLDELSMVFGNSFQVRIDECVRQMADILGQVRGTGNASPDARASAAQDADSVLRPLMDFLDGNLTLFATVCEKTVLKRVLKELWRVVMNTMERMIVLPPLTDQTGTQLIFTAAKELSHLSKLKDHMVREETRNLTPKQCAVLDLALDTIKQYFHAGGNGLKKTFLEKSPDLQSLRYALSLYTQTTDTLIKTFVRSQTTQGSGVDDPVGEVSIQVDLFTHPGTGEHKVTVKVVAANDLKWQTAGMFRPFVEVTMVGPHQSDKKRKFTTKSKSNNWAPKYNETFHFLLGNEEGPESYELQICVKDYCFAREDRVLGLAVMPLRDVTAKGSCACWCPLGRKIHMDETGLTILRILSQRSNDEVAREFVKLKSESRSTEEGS
UniProt Q86WP2: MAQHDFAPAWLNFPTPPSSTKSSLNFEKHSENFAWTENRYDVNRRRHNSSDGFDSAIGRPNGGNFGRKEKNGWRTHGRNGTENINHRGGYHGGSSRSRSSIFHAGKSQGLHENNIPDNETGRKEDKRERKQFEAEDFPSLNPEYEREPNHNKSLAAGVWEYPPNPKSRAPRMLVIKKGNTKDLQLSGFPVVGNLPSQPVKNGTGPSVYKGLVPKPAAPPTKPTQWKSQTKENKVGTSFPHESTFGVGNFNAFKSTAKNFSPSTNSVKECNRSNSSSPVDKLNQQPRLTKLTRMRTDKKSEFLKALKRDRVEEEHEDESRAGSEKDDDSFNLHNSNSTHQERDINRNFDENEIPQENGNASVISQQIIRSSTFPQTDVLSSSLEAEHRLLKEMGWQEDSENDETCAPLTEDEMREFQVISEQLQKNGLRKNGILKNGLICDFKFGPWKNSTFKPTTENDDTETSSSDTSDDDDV
UniProt Q8WVF1: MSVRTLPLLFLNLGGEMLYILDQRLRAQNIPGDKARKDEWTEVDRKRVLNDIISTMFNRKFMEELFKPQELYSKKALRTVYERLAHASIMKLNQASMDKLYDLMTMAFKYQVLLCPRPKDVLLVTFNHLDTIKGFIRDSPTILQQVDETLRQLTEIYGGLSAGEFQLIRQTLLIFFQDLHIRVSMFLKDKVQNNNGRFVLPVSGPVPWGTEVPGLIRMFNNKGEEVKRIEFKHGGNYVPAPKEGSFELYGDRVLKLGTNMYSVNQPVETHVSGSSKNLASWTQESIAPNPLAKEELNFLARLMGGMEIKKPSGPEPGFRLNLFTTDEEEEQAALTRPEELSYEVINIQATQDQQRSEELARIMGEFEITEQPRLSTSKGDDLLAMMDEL
UniProt P43307: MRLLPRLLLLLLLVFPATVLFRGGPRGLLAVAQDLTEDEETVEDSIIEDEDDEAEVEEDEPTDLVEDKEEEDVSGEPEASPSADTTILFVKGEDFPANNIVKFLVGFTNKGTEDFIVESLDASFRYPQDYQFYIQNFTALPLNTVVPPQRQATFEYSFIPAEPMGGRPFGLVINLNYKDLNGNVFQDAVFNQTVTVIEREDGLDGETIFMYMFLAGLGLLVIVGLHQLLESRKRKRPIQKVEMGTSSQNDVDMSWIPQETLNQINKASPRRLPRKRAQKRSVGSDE
UniProt P63098, whole entry, looked up: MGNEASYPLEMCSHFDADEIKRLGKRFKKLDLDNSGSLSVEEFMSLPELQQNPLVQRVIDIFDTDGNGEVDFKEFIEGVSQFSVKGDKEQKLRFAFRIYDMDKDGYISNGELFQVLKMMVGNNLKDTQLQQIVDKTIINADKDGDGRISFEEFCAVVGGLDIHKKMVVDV
UniProt Q9Y2S7: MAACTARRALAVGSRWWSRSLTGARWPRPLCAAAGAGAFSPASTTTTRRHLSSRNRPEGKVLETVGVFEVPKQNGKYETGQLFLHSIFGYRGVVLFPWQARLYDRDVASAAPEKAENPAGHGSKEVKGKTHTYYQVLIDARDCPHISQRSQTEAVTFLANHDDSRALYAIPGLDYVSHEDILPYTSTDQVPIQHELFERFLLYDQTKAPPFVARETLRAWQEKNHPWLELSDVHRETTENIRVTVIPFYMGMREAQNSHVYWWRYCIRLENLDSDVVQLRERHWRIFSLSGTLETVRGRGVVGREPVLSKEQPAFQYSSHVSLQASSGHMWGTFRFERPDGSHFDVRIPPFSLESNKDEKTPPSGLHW
UniProt Q99439: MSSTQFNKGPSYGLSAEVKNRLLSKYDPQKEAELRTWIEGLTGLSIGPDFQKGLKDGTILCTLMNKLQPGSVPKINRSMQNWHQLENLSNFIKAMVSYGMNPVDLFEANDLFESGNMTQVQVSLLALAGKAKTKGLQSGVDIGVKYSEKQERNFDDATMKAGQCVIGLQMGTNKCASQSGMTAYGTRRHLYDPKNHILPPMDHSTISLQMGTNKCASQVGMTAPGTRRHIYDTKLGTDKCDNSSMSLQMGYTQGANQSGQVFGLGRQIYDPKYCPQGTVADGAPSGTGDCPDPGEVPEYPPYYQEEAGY
UniProt P61619, whole entry: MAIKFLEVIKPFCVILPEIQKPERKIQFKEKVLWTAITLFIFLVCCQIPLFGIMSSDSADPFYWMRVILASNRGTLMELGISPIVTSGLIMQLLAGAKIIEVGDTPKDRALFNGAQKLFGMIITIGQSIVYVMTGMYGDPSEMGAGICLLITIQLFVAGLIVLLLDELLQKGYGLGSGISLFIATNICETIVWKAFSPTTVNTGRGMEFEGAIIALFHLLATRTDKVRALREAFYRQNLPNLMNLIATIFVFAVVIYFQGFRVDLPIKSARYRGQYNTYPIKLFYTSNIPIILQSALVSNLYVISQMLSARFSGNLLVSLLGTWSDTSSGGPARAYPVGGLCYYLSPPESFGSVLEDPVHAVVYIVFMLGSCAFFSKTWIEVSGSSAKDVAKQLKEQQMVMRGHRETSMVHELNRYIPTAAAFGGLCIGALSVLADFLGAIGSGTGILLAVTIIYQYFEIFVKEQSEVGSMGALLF

Compound in this assay: Nc1ncnc2c1ncn2[C@@H]1O[C@H](COP(=O)(O)OP(=O)(O)OP(=O)(O)O)[C@@H](O)[C@H]1O [adenosine triphosphate]
In words: NP40-soluble protein abundance relative to vehicle (solubility fold change) (ratio); higher = more soluble protein in presence of ATP. To be noted: concentration: 0.5mM. In short, it runs like this: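 Jurkat crude lysate (Dounce-homogenised) was treated with eight concentrations from 0.1 to 10 mM for 10 min at room temperature, then 3 min at 37 °C. It was solubilised with 0.8% NP40 and benzonase (60 min, 4 °C) and ultracentrifuged, and the supernatant was TMT-labelled for LC-MS/MS. Intensities were vsn-normalised, and the value is the fold change against the NP40-processed vehicle per replicate, from three independent experiments.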
With “A2A2F0 and related entries (UniProt Q86X10)”, the NP40-soluble protein abundance is 1.03 ± 0.015.
As for “B0QZ65 and related entries (UniProt Q14C86)”, the NP40-soluble protein abundance worked out at 0.991 ± 0.018.
In the case of “D6RD47 and related entries (UniProt P62266)” it was 0.932 ± 0.071; in that of “C9JA69 and related entries (UniProt Q8WY36)”, 1.03 ± 0.015; in that of “B8ZZY7 and related entries (UniProt P84101)”, 0.8799 ± 0.0045.
Consider MEX3A (UniProt A1L020), for which the NP40-soluble protein abundance turned out to be 1.03 ± 0.039.
UniProt A3KN83 and related entries: the NP40-soluble protein abundance is 0.998 ± 0.043.
Consider “A0A0G2JJ47|A0A0G2JP87|A2ABH1 and related entries (UniProt Q8TD31)”, for which the NP40-soluble protein abundance is 1.09 ± 0.18.
In the case of “B9EGA3 and related entries (UniProt Q92925)” it was 1.02 ± 0.061; in that of “D6RDM7 and related entries (UniProt P61086)”, 0.988 ± 0.042; in that of “B4DZS0 and related entries (UniProt O76075)”, 1.05 ± 0.027.
Consider “B7Z9U0 and related entries (UniProt Q9UFF9)”, for which the NP40-soluble protein abundance came out at 1.03 ± 0.1.
The value for “B1AMW1 and related entries (UniProt P19256)” was 0.862 ± 0.098.
In the case of “A8MTY9 and related entries (UniProt O14972)” it was 1.07 ± 0.04.
In the case of “A0A140T9D0|Q8NBI6 and related entries (UniProt Q8NBI6)” it was 0.963 ± 0.033; in that of CCDC88B (UniProt A6NC98), 0.965 ± 0.085.
For “B9ZVU2 and related entries (UniProt Q9ULA0)”, the NP40-soluble protein abundance is 0.988 ± 0.029.
A0A0U1RRB3|Q8IYT2 (UniProt Q8IYT2): the NP40-soluble protein abundance is 0.998 ± 0.035.
In the case of “B3KS98 and related entries (UniProt O15372)” it was 0.958 ± 0.078; in that of UniProt A6NHX0, 1.02 ± 0.034; in that of “B1AM27 and related entries (UniProt O14795)”, 1 ± 0.049.
As for “D4PHA4 and related entries (UniProt Q86WP2)”, the NP40-soluble protein abundance was 0.997 ± 0.092.
For the target “C9J0I9 and related entries (UniProt Q86WB0)”, the NP40-soluble protein abundance was 1.03 ± 0.013.
The value for UniProt A6QL63 and related entries was 1.01 ± 0.028.
As for LIPT2 (UniProt A6NK58), the NP40-soluble protein abundance worked out at 0.934 ± 0.12.
The value for “B0YIW6 and related entries (UniProt P48444)” was 1.02 ± 0.034; that for “C9JF58 and related entries (UniProt Q8WVF1)” was 0.985 ± 0.082.
In the case of “B4DJV2 and related entries (UniProt O75390)” it was 0.814 ± 0.2; in that of UniProt A4D1P6 and related entries, 0.971 ± 0.11; in that of “A0A0U1RRB6|Q9Y2D4 and related entries (UniProt Q9Y2D4)”, 1.01 ± 0.069.
The value for “C9IZQ1 and related entries (UniProt P43307)” was 0.949 ± 0.081.
In the case of “A9IYQ1 and related entries (UniProt Q9NTI5)”, the NP40-soluble protein abundance was 1.04 ± 0.043.
As for “D3YTA9 and related entries (UniProt H7BYZ3+F6U1T9+P63098+D3YTA9)”, the NP40-soluble protein abundance was found to be 0.875 ± 0.077.
In the case of “B4DEM9 and related entries (UniProt Q9Y2S7)” it was 1.06 ± 0.093; in that of “A3KFL2 and related entries (UniProt Q13868)”, 1.06 ± 0.034.
Consider “B4DDF4 and related entries (UniProt Q99439)”, for which the NP40-soluble protein abundance worked out at 0.961 ± 0.015.
The value for “C9IYN7 and related entries (UniProt Q0PNE2)” was 1.04 ± 0.096; that for “B4DR61 and related entries (UniProt P61619)” was 1.04 ± 0.049.

The values above are taken from the supplement of paper PMC6411743.
